According to the supplement of paper PMC12819154, “High-throughput peptide-centric local stability assay extends protein–ligand identification to membrane proteins, tissues and bacteria” (Nature Structural & Molecular Biology, 2025):
The list shows a part of the results. Small differences around the control level are noise.

Protein sequences, listed by entry. Tags and fused reporters are not part of them. Lines headed by an entry give the natural chain unless they say otherwise; changes in a name come on top.
UniProt P0CG12: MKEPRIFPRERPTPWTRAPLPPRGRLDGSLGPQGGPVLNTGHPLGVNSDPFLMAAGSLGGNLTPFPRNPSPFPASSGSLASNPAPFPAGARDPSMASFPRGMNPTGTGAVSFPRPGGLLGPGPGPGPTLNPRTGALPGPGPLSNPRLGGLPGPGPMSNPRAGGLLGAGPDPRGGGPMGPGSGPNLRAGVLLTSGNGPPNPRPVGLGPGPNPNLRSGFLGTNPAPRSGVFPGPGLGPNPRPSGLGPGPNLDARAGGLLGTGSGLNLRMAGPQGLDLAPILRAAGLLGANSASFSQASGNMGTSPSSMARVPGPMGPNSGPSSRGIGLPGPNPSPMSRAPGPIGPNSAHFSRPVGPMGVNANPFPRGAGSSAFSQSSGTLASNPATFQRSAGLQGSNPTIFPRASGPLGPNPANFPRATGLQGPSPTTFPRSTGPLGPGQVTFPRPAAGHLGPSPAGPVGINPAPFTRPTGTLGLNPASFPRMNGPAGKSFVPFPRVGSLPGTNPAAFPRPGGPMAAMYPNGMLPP
UniProt P07355, whole entry: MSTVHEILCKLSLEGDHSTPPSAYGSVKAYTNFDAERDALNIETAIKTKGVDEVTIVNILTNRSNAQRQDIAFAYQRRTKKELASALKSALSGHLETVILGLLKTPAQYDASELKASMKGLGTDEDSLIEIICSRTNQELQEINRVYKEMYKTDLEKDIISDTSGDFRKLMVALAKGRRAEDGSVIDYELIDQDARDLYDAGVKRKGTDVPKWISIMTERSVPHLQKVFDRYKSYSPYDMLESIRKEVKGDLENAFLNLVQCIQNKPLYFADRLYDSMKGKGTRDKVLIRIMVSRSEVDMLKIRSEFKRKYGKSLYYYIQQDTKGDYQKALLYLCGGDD
UniProt P05091: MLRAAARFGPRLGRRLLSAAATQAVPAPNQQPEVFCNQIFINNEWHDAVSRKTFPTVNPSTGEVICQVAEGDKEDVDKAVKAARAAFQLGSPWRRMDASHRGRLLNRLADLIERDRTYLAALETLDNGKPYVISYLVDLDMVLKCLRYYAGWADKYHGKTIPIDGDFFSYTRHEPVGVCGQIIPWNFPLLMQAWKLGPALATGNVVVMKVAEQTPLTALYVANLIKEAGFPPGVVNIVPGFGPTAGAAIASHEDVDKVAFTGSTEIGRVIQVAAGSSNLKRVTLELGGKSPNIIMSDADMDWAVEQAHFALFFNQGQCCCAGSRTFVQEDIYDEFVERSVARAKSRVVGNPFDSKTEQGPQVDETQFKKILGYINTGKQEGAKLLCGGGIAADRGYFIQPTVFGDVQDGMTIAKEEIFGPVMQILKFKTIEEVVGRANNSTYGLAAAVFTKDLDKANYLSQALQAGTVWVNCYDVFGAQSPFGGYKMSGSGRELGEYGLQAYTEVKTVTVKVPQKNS
UniProt P13804: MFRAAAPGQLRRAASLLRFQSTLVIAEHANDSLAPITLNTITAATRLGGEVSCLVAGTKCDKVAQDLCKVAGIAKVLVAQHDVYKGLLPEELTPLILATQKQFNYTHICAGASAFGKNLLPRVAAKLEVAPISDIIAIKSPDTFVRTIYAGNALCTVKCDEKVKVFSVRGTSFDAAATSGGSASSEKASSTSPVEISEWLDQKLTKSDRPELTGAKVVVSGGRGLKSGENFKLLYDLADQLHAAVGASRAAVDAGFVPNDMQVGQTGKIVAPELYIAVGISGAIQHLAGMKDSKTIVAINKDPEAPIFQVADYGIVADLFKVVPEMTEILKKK
UniProt P11137: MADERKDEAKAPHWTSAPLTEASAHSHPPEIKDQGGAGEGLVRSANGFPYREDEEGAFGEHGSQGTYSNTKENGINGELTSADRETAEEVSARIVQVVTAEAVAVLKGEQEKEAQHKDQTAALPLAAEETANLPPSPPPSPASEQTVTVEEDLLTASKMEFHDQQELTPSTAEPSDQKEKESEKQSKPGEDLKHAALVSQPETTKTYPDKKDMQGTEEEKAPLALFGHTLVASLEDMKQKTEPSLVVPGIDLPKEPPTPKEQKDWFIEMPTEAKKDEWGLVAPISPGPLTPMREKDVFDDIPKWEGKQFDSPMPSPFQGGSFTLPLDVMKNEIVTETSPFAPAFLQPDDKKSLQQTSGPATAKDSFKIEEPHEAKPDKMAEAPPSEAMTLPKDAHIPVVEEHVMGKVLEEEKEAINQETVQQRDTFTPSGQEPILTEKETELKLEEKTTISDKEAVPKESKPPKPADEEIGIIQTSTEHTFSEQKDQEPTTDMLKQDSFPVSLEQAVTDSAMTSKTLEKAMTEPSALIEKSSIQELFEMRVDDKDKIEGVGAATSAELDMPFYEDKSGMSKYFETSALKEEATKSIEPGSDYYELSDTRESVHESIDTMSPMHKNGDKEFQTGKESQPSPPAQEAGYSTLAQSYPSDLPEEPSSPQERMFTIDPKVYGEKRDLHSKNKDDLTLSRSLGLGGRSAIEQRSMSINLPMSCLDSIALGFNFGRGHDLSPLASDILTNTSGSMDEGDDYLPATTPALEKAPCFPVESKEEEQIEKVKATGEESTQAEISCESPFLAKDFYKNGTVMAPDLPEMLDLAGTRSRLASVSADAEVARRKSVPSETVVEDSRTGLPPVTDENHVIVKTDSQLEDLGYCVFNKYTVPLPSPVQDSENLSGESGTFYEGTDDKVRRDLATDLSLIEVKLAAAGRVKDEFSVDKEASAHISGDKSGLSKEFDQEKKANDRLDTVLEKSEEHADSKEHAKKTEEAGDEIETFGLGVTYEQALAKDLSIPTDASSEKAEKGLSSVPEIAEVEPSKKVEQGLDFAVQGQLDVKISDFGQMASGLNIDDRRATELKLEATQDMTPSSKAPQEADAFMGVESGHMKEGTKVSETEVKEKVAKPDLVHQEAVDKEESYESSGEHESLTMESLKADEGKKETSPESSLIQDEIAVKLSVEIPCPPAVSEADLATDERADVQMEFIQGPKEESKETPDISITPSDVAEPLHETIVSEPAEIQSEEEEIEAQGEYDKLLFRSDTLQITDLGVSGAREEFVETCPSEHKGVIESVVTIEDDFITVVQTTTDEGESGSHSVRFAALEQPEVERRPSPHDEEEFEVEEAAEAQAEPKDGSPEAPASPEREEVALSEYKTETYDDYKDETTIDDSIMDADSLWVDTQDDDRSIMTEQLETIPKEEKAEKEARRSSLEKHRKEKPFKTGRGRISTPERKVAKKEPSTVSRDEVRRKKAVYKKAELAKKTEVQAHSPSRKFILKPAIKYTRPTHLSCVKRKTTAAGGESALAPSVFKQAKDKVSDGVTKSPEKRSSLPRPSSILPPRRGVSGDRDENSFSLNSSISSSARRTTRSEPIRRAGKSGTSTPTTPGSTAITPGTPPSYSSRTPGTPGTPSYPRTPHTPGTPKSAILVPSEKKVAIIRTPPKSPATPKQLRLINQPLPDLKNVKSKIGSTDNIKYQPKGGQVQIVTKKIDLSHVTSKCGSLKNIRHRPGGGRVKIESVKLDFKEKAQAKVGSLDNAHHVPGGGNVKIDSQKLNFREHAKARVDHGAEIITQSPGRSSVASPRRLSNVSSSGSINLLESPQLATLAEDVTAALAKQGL
UniProt P09972: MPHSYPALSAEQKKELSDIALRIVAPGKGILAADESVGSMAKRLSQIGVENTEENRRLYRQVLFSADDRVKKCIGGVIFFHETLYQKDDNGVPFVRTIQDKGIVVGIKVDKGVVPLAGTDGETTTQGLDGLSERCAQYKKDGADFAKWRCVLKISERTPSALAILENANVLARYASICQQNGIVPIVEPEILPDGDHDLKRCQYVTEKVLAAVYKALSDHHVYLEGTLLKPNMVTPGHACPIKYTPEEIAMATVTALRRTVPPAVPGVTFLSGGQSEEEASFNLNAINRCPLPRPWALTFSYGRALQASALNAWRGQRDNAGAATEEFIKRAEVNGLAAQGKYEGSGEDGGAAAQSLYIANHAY
UniProt P0C7X2: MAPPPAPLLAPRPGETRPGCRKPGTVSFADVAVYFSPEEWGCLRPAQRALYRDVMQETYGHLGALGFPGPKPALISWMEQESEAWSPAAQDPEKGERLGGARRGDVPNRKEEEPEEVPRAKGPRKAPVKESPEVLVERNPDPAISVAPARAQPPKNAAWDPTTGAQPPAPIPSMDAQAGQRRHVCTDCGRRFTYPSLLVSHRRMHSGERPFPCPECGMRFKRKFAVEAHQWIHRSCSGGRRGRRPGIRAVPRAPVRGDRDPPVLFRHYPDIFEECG
UniProt P07951, whole entry: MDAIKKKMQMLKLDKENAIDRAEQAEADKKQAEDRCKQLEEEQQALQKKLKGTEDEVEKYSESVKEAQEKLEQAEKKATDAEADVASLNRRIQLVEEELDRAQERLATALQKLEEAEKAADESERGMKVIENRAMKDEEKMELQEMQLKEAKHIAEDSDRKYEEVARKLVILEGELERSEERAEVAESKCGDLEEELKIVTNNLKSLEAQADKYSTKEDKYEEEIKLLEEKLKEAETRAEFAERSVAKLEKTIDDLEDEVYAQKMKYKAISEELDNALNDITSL
UniProt P11021: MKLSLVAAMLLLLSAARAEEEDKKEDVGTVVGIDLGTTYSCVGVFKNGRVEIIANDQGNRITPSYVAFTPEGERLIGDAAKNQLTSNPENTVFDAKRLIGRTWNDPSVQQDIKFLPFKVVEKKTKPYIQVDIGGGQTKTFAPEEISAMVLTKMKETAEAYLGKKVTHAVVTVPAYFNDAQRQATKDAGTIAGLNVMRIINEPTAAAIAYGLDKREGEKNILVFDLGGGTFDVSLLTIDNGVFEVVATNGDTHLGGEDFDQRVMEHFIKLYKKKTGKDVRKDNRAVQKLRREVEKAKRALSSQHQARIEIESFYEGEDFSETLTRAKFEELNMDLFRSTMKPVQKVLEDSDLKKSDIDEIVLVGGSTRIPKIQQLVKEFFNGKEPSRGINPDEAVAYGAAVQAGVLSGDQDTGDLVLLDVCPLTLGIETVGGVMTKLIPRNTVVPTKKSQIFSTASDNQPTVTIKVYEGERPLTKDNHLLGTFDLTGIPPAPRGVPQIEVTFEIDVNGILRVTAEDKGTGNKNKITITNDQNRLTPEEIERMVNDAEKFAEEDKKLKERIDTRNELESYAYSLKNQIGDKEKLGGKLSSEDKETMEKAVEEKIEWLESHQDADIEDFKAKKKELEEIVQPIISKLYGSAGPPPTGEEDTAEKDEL
UniProt P0CW24: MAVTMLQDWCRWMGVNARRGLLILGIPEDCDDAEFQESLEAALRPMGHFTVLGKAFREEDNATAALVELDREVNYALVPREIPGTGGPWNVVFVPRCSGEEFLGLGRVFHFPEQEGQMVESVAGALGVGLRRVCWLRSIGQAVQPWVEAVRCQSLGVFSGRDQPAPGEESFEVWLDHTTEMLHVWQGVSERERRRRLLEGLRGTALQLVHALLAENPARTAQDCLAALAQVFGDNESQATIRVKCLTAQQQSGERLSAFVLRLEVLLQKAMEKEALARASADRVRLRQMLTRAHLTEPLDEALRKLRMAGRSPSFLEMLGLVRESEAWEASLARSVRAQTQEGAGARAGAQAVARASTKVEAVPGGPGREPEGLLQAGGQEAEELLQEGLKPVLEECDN
UniProt P08621, whole entry: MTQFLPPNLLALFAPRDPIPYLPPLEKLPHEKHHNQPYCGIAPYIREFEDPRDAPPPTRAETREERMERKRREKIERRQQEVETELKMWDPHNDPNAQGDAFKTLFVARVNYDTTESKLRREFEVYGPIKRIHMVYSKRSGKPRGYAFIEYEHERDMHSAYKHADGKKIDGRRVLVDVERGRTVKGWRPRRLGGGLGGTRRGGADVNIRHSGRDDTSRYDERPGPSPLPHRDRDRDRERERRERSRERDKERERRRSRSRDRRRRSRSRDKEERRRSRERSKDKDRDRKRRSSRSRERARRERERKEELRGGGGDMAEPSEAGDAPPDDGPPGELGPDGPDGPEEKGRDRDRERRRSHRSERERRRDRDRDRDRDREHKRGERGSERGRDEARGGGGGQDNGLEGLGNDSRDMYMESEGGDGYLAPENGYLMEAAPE
UniProt P04062: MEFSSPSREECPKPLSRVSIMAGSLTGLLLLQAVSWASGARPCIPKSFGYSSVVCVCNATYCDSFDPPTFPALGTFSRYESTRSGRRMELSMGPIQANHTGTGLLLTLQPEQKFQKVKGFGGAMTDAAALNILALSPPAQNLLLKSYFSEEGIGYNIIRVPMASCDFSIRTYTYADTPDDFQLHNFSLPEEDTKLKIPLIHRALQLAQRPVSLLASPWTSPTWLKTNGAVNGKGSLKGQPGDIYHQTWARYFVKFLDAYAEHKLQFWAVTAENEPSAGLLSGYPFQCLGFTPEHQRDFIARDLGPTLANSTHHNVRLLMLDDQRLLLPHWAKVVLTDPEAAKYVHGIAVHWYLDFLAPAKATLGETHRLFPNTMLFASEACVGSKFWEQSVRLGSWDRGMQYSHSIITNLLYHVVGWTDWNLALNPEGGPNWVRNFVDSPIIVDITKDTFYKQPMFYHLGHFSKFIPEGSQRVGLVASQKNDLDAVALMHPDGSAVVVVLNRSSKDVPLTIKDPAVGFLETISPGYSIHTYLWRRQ
UniProt P07919: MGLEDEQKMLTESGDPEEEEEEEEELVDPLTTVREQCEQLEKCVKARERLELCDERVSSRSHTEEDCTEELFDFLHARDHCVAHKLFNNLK

Compound: Cc1nc(Nc2ncc(C(=O)Nc3c(C)cccc3Cl)s2)cc(N2CCN(CCO)CC2)n1 [dasatinib]
Assay: log2 fold change of tryptic peptide abundance, ligand vs vehicle (limited proteolysis) (log2 ratio); higher = more trypsin-susceptible (destabilized)
Details: ligand concentration: 5 uM; sample: K562 cleared lysate

Target	log2 fold change
UniProt P0CG12 (peptide sequence: PVGLGPGPNPNLR, peptide start residue: 202)	-1.16
NR3C1 (peptide sequence: TEKEDFIELCTPGVIK, peptide start residue: 278) (UniProt P04150)	0.29
ACADM (peptide sequence: TRPVVAAGAVGLAQR, peptide start residue: 280) (UniProt P11310)	0.136
ANXA2 (peptide sequence: IRSEFKR, peptide start residue: 303) (UniProt P07355)	0.503
GSN (peptide sequence: AGALNSNDAFVLK, peptide start residue: 585) (UniProt P06396)	0.13
ALDH2 (peptide sequence: ILGYINTGK, peptide start residue: 370) (UniProt P05091)	0.193
ETFA (peptide sequence: VAAKLEVAPISDIIAIK, peptide start residue: 123) (UniProt P13804)	1.05
XRCC5 (peptide sequence: SQLDIIIHSLKK, peptide start residue: 145) (UniProt P13010)	0.201
EEF1AKMT4 (peptide sequence: WETMDVR, peptide start residue: 109) (UniProt P0DPD7)	0.256
UniProt P11137 (peptide sequence: SLGLGGR, peptide start residue: 686)	0.363
PRKAR1A (peptide sequence: ILMGSTLR, peptide start residue: 234) (UniProt P10644)	-0.121
ALDOC (peptide sequence: AEVNGLAAQGK, peptide start residue: 332) (UniProt P09972)	0.249
LDHB (peptide sequence: VIGSGCNLDSAR, peptide start residue: 158) (UniProt P07195)	-0.129
ZNF688 (peptide sequence: KEEEPEEVPR, peptide start residue: 110) (UniProt P0C7X2)	-0.409
TPM2 (peptide sequence: EAETRAEFAER, peptide start residue: 198) (UniProt P07951)	-0.133
SNRPA (peptide sequence: SMQGFPFYDKPMR, peptide start residue: 71) (UniProt P09012)	0.582
HSPA5 (peptide sequence: NELESYAYSLK, peptide start residue: 563) (UniProt P11021)	0.12
UniProt P0CW24 (peptide sequence: AHLTEPLDEALR, peptide start residue: 293)	-0.684
SNRNP70 (peptide sequence: REFEVYGPIKR, peptide start residue: 121) (UniProt P08621)	0.281
UniProt P09017 (peptide sequence: QQVLELEKEFHYNR, peptide start residue: 172)	0.0302
C8orf88 (peptide sequence: LSSVSICR, peptide start residue: 87) (UniProt P0DMB2)	0.078
GBA (peptide sequence: ATLGETHR, peptide start residue: 361) (UniProt P04062)	0.321
NEFH (peptide sequence: SPADKFPEK, peptide start residue: 782) (UniProt P12036)	-0.847
UniProt P01112 (peptide sequence: KLNPPDESGPGCMSCK, peptide start residue: 170)	0.619
UQCRH (peptide sequence: LELCDER, peptide start residue: 50) (UniProt P07919)	0.0311
UniProt P04350 (peptide sequence: GLKMAATFIGNSTAIQELFKR, peptide start residue: 360)	-0.457

Pulled one by one from above:
Target	log2 fold change
ACADM (peptide sequence: TRPVVAAGAVGLAQR, peptide start residue: 280) (UniProt P11310)	0.136
ZNF688 (peptide sequence: KEEEPEEVPR, peptide start residue: 110) (UniProt P0C7X2)	-0.409
